PubChem BioAssay AID493014 (National Center for Advancing Translational Sciences (NCATS), 2011)
The list shows a part of the results. Shown are side measurements of this screen, not its main read-out; they come without a call. The list favours compounds with an active or inconclusive main result. The note in brackets gives the kind of curve behind each potency; many fits are weak.

Assay: qHTS Assay to Find Inhibitors of Chronic Active B-Cell Receptor Signaling
Details: ABC-DLBCL IkBa-CBG/CBR reporter, luminescence ratio (green luciferase fused to IkBa over red control in TMD8 lymphoma cells), 4 h
Summary of the method: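 Cell line TMD8 (human ABC DLBCL), stably expressing tet-inducible CBG68-IkBa fusion and CBR; IMDM/0.5% FBS; cpd up to 46 uM; dox induction, 4 h, 37C/5% CO2; dual luminescence; green/red ratio; MG132 control.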

[1] = measured here: CBR red luminescence, cell number
[2] = measured here: IkBa-CBG green luminescence

Which AC50 [1] does the source give for `CN1C(=O)/C(=C/c2ccc(OCc3ccccc3F)cc2)NC1=S` here?
The AC50 was 4.47 µM [rising, partial curve].

With `Nc1nc(OCC(F)(F)F)cc(Oc2ccccc2F)n1` as the molecule, how does the AC50 [1] read?
The AC50 was 11.2 µM [rising, partial curve, poor fit].

Which AC50 [1] does the source give for `COc1cc2nc(CC(C)C)n(NC(=O)c3ccccc3Br)c(=O)c2cc1OC` here?
The AC50 was 7.94 µM [falling, partial curve, poor fit].

With `O=C(CSc1nnc(-c2ccco2)o1)Nc1ccccc1Cl` as the molecule, how does the AC50 [1] read?
The AC50 was 3.98 µM [falling, full curve, poor fit].

With `CN1C(=O)C2(c3ccccc31)N(C)CC(c1ccccn1)C21SC(=S)N(Cc2ccco2)C1=O` (stereo not drawn) as the molecule, how does the AC50 [1] read?
The AC50 was 17.8 µM [falling, partial curve, poor fit].

With `Cn1cc(CN2CCCC(CO)(Cc3ccccc3)C2)cn1` (stereo not drawn) as the molecule, how does the AC50 [1] read?
The AC50 was 0.794 µM [falling, full curve].

With `CCN(CC)CCNC(=S)Nc1ccc2nc(N3CCCC3)cc(C)c2c1` as the molecule, how does the AC50 [1] read?
Its AC50 is 1.41 µM [falling, full curve, poor fit].

For `S=C(NCCc1ccc(Cl)cc1)NC1CCCC1`, which AC50 [1] is on record?
The AC50 was 12.6 µM [falling, single point].

For `COC(=O)C1CCN(c2ccc([N+](=O)[O-])cc2[N+](=O)[O-])CC1`, which AC50 [1] is on record?
The AC50 was 8.91 µM [rising, partial curve, poor fit].

With `Cc1nc2ncnn2c(C)c1CCC(=O)NCCc1ccccc1` as the molecule, how does the AC50 [1] read?
The AC50 was 6.51 µM [falling, single point].

Which AC50 [1] does the source give for `Cc1c(NC(=O)Nc2ccc(Cl)c(Cl)c2)c(=O)n(-c2ccccc2)n1C` here?
Its AC50 is 6.51 µM [rising, single point].

For `O=C(CCS(=O)(=O)c1cccc2nsnc12)NCc1ccccc1Cl`, which AC50 [1] is on record?
Its AC50 is 7.31 µM [falling, partial curve].

With `CC(C)Oc1ccc2c(=O)c(-c3ccccc3)coc2c1` as the molecule, how does the AC50 [1] read?
Its AC50 is 1.16 µM [rising, full curve].

Which AC50 [1] does the source give for `CCCc1nn(C)c(C(N)=O)c1[N+](=O)[O-]` here?
The AC50 was 2.82 µM [rising, single point].

With `COc1ccc(NC(=O)Cn2c(=O)cc(C)c3c(C)nn(-c4cccc(Cl)c4C)c32)cc1OC` as the molecule, how does the AC50 [1] read?
Its AC50 is 35.5 µM [falling, single point].

With `O=C(COc1ccc2ccccc2c1)Nc1nnc(-c2ccco2)s1` as the molecule, how does the AC50 [1] read?
Its AC50 is 0.794 µM [rising, full curve, poor fit].

Which AC50 [1] does the source give for `CC1CCc2sc(C(=O)NC3CCCCC3)cc2C1` (stereo not drawn) here?
Its AC50 is 2.06 µM [falling, full curve, poor fit].

With `COC(=O)c1ccc(NC(=O)c2ccc(OC(C)=O)c(OC)c2)cc1` as the molecule, how does the AC50 [1] read?
Its AC50 is 11.2 µM [falling, partial curve, poor fit].

With `CC(=O)Nc1nc2ccc(-c3nc4ccccc4o3)cc2s1` as the molecule, how does the AC50 [2] read?
Its AC50 is 23.1 µM [falling, partial curve, poor fit].

Which AC50 [1] does the source give for `O=S(=O)(CCSc1nc2ccccc2s1)c1nc2ccccc2s1` here?
Its AC50 is 8.2 µM [falling, partial curve].

What about the AC50 [2] of the same molecule?
The AC50 was 10.3 µM [rising, partial curve, poor fit].

With `O=C1c2ccccc2C(=O)N1CSc1nnnn1-c1ccccc1` as the molecule, how does the AC50 [1] read?
The AC50 was 0.58 µM [rising, partial curve, poor fit].

Which AC50 [2] does the source give for `CC(=O)c1sc(NC(=O)c2ccco2)nc1-c1ccccc1` here?
Its AC50 is 0.58 µM [rising, full curve, poor fit].

Which AC50 [1] does the source give for `CC(C)CN1CCN(CC#Cc2ccccc2)CC1CCO` (stereo not drawn) here?
The AC50 was 35.5 µM [rising, single point].

Which AC50 [1] does the source give for `O=C(Nc1nnc(C(F)(F)F)s1)c1cccnc1` here?
The AC50 was 1.84 µM [falling, full curve].

With `Cc1ccc(S(=O)(=O)N2CCC(C(=O)OCC(=O)N(Cc3ccccc3)C(C)(C)C)CC2)cc1C` as the molecule, how does the AC50 [1] read?
The AC50 was 11.6 µM [falling, partial curve, poor fit].

For `COc1cccc(NC(=O)c2sc3nc4n(c(=O)c3c2C)CCC4)c1`, which AC50 [1] is on record?
The AC50 was 0.0891 µM [falling, full curve, poor fit].

For `CCCCOC(=O)CSc1nc2c(c(=O)[nH]c(=O)n2C)n1C/C=C(\C)Cl`, which AC50 [1] is on record?
The AC50 was 31.6 µM [rising, single point].

For `COc1cc(/C=C2/SC(=S)N(Cc3ccccc3)C2=O)cc(OC)c1O`, which AC50 [1] is on record?
The AC50 was 10 µM [rising, single point].

Which AC50 [1] does the source give for `COC(=O)c1ccc(COC(=O)c2ccc(CO)cc2)o1` here?
Its AC50 is 29.1 µM [rising, single point].

With `COc1ccc(NC(=O)COc2ccccc2)c(OC)c1` as the molecule, how does the AC50 [1] read?
Its AC50 is 7.31 µM [falling, partial curve, poor fit].

For `COc1ccc(OC)c(NC(=O)NCCc2cccc(Cl)c2)c1`, which AC50 [1] is on record?
Its AC50 is 35.5 µM [rising, single point].

With `COCc1cc(=O)n2[nH]c(-c3ccco3)cc2n1` as the molecule, how does the AC50 [1] read?
The AC50 was 35.5 µM [falling, single point].

Which AC50 [1] does the source give for `c1ccc2oc(NC3=NCN(CC4CCCO4)CN3)nc2c1` (stereo not drawn) here?
The AC50 was 9.2 µM [rising, partial curve, poor fit].

With `CSc1ccc(Cl)c(C(=O)Nc2ccc(Cl)cn2)c1` as the molecule, how does the AC50 [1] read?
The AC50 was 1 µM [falling, full curve, poor fit].

With `COCCNC(=O)c1ccc(Cn2c(SCC(=O)NCC3CCCO3)nc3ccc(Br)cc3c2=O)cc1` (stereo not drawn) as the molecule, how does the AC50 [1] read?
The AC50 was 6.31 µM [falling, single point].

With `O=C(C[n+]1cc(-c2ccccc2)n2c1CCC2)OCc1ccccc1` as the molecule, how does the AC50 [1] read?
The AC50 was 20.6 µM [rising, partial curve, poor fit].

With `O=Cc1cccc(OC(=O)/C=C/c2ccco2)c1` as the molecule, how does the AC50 [1] read?
The AC50 was 15.8 µM [rising, partial curve].

For `COc1ccc(C(=O)Cn2ccsc2=NC(C)=O)cc1`, which AC50 [1] is on record?
Its AC50 is 22.4 µM [rising, single point].

Which AC50 [1] does the source give for `Clc1ccc(C[n+]2cc(-c3ccccc3)n3c2CCC3)cc1` here?
Its AC50 is 2.51 µM [falling, full curve, poor fit].

With `O=C(O)COc1ccccc1/C=N/NC(=O)c1ccc2c(c1)OCCO2` as the molecule, how does the AC50 [1] read?
The AC50 was 8.91 µM [falling, partial curve].

With `CCOC(=O)c1c(C)[nH]c(C(=O)COC(=O)c2cc(C)oc2C)c1C` as the molecule, how does the AC50 [1] read?
Its AC50 is 0.103 µM [rising, partial curve, poor fit].

Which AC50 [1] does the source give for `CCOC(=O)N1CCN(Cc2c(F)cccc2F)CC1` here?
The AC50 was 32.6 µM [rising, single point].
